Our source for the binding values is paper PMC3441751, “Structure and Assembly of a Trans-Periplasmic Channel for Type IV Pili in Neisseria meningitidis” (PLoS Pathogens, 2012).

The chains behind the UniProt entries cited, without tags or fusion partners. Residues count along the entry.
UniProt Q7DD77, residues 77-164: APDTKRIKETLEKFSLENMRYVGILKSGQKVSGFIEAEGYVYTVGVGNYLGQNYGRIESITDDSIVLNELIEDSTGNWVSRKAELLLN
N0N1PilQ^343–545 (N0/N1 double domain of N. meningitidis PilQ) (Q70M91, residues 343-545): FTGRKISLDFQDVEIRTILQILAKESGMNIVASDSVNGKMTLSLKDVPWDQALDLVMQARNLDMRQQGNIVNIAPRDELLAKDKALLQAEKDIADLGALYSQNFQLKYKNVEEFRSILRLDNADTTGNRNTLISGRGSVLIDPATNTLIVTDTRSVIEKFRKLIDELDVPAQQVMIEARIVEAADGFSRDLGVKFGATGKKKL
N0PilQ^343–442 (N0 domain of N. meningitidis PilQ) (Q70M91, residues 343-442): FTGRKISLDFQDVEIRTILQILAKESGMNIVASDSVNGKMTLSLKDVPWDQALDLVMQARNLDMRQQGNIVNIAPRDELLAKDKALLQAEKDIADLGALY

No constants are given. Whether binding was seen depends on the method and setting. Some binding calls cover weakened binding; strength is not graded here.

The target in assay [1] is PilP^77–164 (C-terminal domain of the PilP lipoprotein, N. meningitidis) (N. meningitidis) (UniProt Q7DD77). The assay is described as follows: NMR titration; unlabelled PilQ fragment titrated into 50 µM 15N-labelled PilP^77–164; [PilP]:[PilQ] 1:0.1 to 1:1; 2D 1H-15N HSQC; 50 mM NaCl, 50 mM sodium phosphate pH 6.8; 298 K; peak attenuation; both purified.
Assay [2] deals with N0N1PilQ^343–545 (N0/N1 double domain of N. meningitidis PilQ) (N. meningitidis) (UniProt Q70M91). The assay is described as follows: NMR titration; natural-abundance PilP^77–164 titrated into 15N 13C PilQ (N0PilQ^343–442 or N0N1PilQ^343–545); [PilQ]:[PilP] 1:0.1 to 1:1; peak attenuation; both purified.
In assay [3] the target is N0PilQ^343–442 (N0 domain of N. meningitidis PilQ) (N. meningitidis) (UniProt Q70M91). Described as above.

For the substance “N0N1PilQ^343–545 (N0/N1 double domain of N. meningitidis PilQ) (from UniProt Q70M91 343-545) (domain or fragment)”, the binding entry in assay [1] is listed as “binds”. “PilP^77–164 (C-terminal domain of the PilP lipoprotein, N. meningitidis) (from UniProt Q7DD77 77-164) (domain or fragment)”: the binding entry in assay [2] and in assay [3] was “binds” in each case.
